This assay has as its target HA-tagged NuMA over-expressed in 293T cells (human) (UniProt Q14980). The assay can be described thus: co-IP.

By UniProt entry, the sequences of proteins in these tests, tags left out.
UniProt Q14980: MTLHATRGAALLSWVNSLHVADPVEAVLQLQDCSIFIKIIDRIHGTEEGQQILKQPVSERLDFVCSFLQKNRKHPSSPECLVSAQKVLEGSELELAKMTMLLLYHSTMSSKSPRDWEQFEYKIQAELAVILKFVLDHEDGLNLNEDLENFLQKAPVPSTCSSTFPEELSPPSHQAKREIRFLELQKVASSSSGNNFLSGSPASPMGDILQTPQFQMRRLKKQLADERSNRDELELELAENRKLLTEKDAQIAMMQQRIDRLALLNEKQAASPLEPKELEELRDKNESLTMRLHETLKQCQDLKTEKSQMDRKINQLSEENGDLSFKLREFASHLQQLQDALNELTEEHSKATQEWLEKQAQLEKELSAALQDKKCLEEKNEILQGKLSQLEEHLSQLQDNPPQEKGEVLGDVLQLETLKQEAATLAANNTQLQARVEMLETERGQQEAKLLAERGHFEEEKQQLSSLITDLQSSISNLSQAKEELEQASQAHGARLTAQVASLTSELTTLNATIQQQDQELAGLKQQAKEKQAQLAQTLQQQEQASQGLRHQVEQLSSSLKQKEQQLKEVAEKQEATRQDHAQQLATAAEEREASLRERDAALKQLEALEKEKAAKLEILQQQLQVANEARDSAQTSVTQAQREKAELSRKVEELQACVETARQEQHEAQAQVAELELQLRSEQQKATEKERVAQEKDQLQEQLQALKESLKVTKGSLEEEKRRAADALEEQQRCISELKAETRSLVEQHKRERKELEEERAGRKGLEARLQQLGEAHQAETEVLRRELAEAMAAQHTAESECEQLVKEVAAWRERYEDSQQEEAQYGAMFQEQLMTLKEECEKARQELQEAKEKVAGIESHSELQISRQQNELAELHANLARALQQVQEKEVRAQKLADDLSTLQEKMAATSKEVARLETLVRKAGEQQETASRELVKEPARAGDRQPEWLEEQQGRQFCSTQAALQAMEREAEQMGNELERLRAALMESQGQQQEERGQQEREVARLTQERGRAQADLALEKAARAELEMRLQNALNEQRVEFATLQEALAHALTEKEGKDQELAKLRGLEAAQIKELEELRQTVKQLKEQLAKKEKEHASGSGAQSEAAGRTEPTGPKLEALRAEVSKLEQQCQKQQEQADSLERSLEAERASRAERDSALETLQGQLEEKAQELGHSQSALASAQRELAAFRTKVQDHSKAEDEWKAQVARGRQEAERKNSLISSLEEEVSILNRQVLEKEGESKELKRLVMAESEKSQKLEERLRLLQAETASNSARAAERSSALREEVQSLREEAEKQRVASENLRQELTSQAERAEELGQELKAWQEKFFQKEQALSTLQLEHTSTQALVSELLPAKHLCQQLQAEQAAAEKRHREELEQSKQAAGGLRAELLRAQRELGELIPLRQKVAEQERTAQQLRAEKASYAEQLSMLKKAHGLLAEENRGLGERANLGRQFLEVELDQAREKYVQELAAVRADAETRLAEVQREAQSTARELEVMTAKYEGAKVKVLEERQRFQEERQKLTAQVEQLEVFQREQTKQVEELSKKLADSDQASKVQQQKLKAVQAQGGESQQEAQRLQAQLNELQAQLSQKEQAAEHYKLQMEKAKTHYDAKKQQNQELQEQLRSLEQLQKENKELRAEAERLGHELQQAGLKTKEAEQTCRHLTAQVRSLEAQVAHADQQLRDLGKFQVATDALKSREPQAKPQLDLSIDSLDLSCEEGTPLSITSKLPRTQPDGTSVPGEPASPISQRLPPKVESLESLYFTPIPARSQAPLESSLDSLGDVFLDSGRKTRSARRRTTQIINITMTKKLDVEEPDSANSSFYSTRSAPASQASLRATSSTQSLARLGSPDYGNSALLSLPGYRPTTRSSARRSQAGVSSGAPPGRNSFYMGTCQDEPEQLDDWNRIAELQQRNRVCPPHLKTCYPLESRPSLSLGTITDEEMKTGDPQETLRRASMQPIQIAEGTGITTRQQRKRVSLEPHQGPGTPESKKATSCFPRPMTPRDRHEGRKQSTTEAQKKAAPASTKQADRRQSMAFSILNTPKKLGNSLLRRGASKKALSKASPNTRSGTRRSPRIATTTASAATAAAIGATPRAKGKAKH
UniProt Q02539: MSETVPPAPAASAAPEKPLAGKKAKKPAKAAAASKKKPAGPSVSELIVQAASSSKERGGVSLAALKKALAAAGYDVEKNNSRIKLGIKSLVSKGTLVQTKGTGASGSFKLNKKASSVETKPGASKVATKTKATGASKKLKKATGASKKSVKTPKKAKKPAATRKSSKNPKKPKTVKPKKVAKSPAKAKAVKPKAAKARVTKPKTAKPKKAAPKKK

This passage reports binding results from publication doi:10.1101/2025.07.08.663620.

No constants are given. Whether binding was seen depends on the method and setting. Binding seen in cells or lysates may run through a third protein. Some binding calls cover weakened binding; strength is not graded here.

Consider “FLAG-tagged H1.1 over-expressed in 293T cells (from UniProt Q02539 1-215)”, for which the binding entry is on record as “binds”.
